In paper PMC7392006 one finds binding data, which are given here for two substances.

Common to all, as to assay: co-IP; FLAG- or MYC-tagged proteins and domains expressed in HEK293T (293T) cells, transfected for 48 hours
Experiment [1] concerns the target T1, JMJD2D, expressed in HEK293T (UniProt Q6B0I6).
T1 sequence: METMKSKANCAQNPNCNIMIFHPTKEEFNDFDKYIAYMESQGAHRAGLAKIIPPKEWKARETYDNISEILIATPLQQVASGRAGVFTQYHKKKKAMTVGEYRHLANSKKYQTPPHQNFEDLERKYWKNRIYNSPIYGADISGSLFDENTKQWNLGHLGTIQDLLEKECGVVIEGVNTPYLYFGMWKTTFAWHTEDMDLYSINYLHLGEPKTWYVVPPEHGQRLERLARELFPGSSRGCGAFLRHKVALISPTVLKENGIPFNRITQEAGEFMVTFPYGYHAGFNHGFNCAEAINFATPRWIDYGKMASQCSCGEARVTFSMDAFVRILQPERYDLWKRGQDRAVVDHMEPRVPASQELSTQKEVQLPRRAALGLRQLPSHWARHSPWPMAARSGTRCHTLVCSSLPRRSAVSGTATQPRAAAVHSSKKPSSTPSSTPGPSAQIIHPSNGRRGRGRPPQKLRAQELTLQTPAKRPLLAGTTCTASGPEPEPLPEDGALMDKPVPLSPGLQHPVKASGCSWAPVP

For experiment [2], the target named is T2, JMJD2D C-terminal domain (amino acids 313-523) (UniProt Q6B0I6).
T2 sequence: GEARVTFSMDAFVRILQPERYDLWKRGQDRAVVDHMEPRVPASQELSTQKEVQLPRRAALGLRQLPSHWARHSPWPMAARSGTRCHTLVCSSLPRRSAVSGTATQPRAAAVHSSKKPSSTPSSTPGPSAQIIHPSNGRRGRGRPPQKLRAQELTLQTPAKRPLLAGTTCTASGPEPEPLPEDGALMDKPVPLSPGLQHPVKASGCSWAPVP

In experiment [3] the target is T3, JMJD2D-S200M (UniProt Q6B0I6).
T3 sequence: T1 sequence with S200M

Numbering of substitutions follows the chain as printed. These are yes or no findings as the source states them, for the method shown. In cells and extracts the contact can be indirect. Some results given as binding are weak or reduced against the parent protein; the word gives no strength.

Consider “p53 DNA binding domain (DBD, amino acids 101-300) (from UniProt P04637 101-300) (domain or fragment)”, for which, in experiment [1], the binding entry is listed as “binds”.

Regarding “p53, expressed in HEK293T (from UniProt P04637 1-393)”, the binding result in experiment [2] and in experiment [3] was “binds” in each case.
